Measured data: PubChem BioAssay AID1508588 (Peter MacCallum Cancer Centre, 2020)
The whole screen tested about 18,000 reagents; shown is a part drawn at random. Of all reagents, 790 (4.4%) got an active call. 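Calls rest on a combination of fold-change classes in drug and vehicle arms, not all shown here.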 Unmarked entries are inactive. Reagents against one gene are numbered here. Reagent sequences are not shown.

- Assay: 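Knock-downs boosting vemurafenib effects on melanoma cell growth or lactate release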 (primary screen)
- Cells: human WM266.4 melanoma cells (BRAF V600 mutant)
- Knock-down reagent: siRNA pool against human genes, 40 nM
- Time to read-out: 96 h from transfection to read-out
- Conditions: vemurafenib 300 nM (about IC25), added 48 h after transfection, for 48 h; comparison arm got DMSO vehicle only
- Read-out: 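Cell gain (DAPI nuclei at end minus before drug, mean of two replicates) and medium lactate by absorbance per cell, both as ratio to non-targeting siRNA, also grouped into fold-change classes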
- Reading the numbers: cell gain with vemurafenib: higher = more cell gain than with non-targeting siRNA; lactate per cell with vemurafenib: higher = more lactate made per cell
- Hit rule: 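Enhancement is called by pairing each knock-down's vehicle-arm and drug-arm fold-change classes for viability or glycolysis; which class combinations qualify is not given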
- Calls: active = enhances vemurafenib effect; inactive = no enhancement seen

| gene | reagent no. | cell gain with vemurafenib | lactate per cell with vemurafenib |
| --- | --- | --- | --- |
| ZNF182 | 1 | 1.13 | 0.68 |
| PAGE3 | 1 | 0.18 | 3.16 |
| RMI2 | 1 | 0.69 | 0.74 |
| METTL4 | 1 | 0.89 | 0.72 |
| STARD3 | 1 | 0.68 | 0.91 |
| RNF139 | 1 | 1.14 | 0.86 |
| VGLL4 | 1 | 0.34 | 0.94 |
| ALPL | 1 | 0.37 (active) | 0.6 |
| NOL4 | 1 | 0.73 | 0.5 |
| DZIP3 | 1 | 0.17 | 2.27 |
| ZSCAN16 | 1 | 0.63 | 0.61 |
| GLRB | 1 | 0.6 | 0.54 |
| CHAC2 | 1 | 0.29 | 2.76 |
| KIF21A | 1 | 0.24 | 2 |
| PRSS53 | 1 | 0.47 | 1.2 |
| PAK1 | 1 | 0.53 | 1.21 |
| FLT4 | 1 | -0.19 | 0.43 |
| EDC4 | 1 | 0.62 (active) | 0.45 |
| UPK1B | 1 | 0.76 | 0.44 |
| NLRP9 | 1 | 0.33 | 1.03 |
| SF3B1 | 1 | 0.02 | 1.96 |
| WDR26 | 1 | 0.31 | 1.23 |
| NAPA | 1 | -0.02 | 0.53 |
| PELP1 | 1 | 0.27 | 0.9 |
| TMEM183A | 1 | 0.37 | 1.17 |
| RRM2 | 1 | 0 | 2.41 |
| RRM2 | 2 | 0.42 | 0.9 |
| FERD3L | 1 | 0.68 | 0.66 |
| BMPR2 | 1 | 0.53 | 1.16 |
| SLC10A7 | 1 | 0.56 | 1.07 |
| CBLL2 | 1 | 1.18 | 0.78 |
| IRAK2 | 1 | 0.61 | 0.74 |
| PAK3 | 1 | 0.62 | 1.32 |
| PHKG2 | 1 | 0.68 | 0.6 |
| ZNF781 | 1 | 0.53 | 1.4 |
| USP1 | 1 | 0.27 | 0.98 |
| CKMT2 | 1 | 0.52 | 0.82 |
| LRRC3B | 1 | 1 | 0.64 |
| JAKMIP1 | 1 | 1 | 0.62 |
| UPK3A | 1 | 0.62 | 0.73 |
| TUBGCP6 | 1 | 0.46 | 1.32 |
| CCDC73 | 1 | 1.16 | 0.7 |
| EIF4E2 | 1 | 0.06 | 1.19 |
| FHL1 | 1 | 0.58 (active) | -0.1 |
| SRPK1 | 1 | 0.67 | 1.1 |
| CD9 | 1 | 0.25 (active) | 0.18 |
| TEAD3 | 1 | 0.84 | 0.96 |
| ZNF763 | 1 | 0.29 | 0.82 |
| ALDH18A1 | 1 | 0.5 | 1.05 |
| RAB1A | 1 | 0.27 | 1.82 |

7 entries already listed, sorted by “cell gain with vemurafenib”, ascending:
| gene | reagent no. | cell gain with vemurafenib | lactate per cell with vemurafenib |
| --- | --- | --- | --- |
| DZIP3 | 1 | 0.17 | 2.27 |
| CHAC2 | 1 | 0.29 | 2.76 |
| VGLL4 | 1 | 0.34 | 0.94 |
| ALPL | 1 | 0.37 (active) | 0.6 |
| GLRB | 1 | 0.6 | 0.54 |
| ZSCAN16 | 1 | 0.63 | 0.61 |
| NOL4 | 1 | 0.73 | 0.5 |

Continued.
| gene | reagent no. | cell gain with vemurafenib | lactate per cell with vemurafenib |
| --- | --- | --- | --- |
| MTSS1 | 1 | 0.65 | 0.74 |
| IGF2-AS | 1 | 0.98 | 1.06 |
| CYP2A6 | 1 | 0.75 | 1.14 |
| PUDP | 1 | 0.77 | 1.26 |
| SLX1B | 1 | 0.67 | 1.06 |
| CEP250 | 1 | -0.03 | 2.62 |
| EMC6 | 1 | 0.44 | 1.33 |
| UPF2 | 1 | 0.94 | 0.61 |
| CEPT1 | 1 | 0.18 | 0.6 |
| AP1M1 | 1 | 0.85 | 1.16 |
| ATXN7 | 1 | 0.7 (active) | 0.48 |
| APOBEC3A | 1 | 0.06 | 0.9 |
| SS18L1 | 1 | 0.81 | 0.89 |
| MPHOSPH8 | 1 | 0.92 | 0.94 |
| CCNA2 | 1 | 0.04 | 1.15 |
| PTCD3 | 1 | 0.61 | 0.61 |
| KIFC3 | 1 | 0.7 | 0.36 |
| FARP1 | 1 | 0.28 | 0.99 |
| ANXA6 | 1 | 0.68 | 1.24 |
| JUN | 1 | 0.68 | 0.34 |
| CYP11A1 | 1 | 0.84 | 0.91 |
| CDK11B | 1 | 0.26 | 1.23 |
| SLC15A2 | 1 | 0.96 | 0.68 |
| PSMD4 | 1 | 0.33 | 1.57 |
| ORM2 | 1 | 0.51 | 1.29 |
| C1RL | 1 | 0.66 | 1.06 |
| CORO1A | 1 | 1.16 | 0.88 |
| CRIPAK (retired record) | 1 | 0.76 | 0.96 |
| CPTP | 1 | 0.69 | 0.7 |
| RERG | 1 | 1.15 | 0.6 |
| ZNF219 | 1 | 0.93 | 0.57 |
| HNRNPU | 1 | 0.49 | 0.65 |
| INTS11 | 1 | 0.02 | 0.96 |
| NRIP1 | 1 | 0.89 | 0.86 |
